The chains behind the UniProt entries cited, without tags or fusion partners. Residues count along the entry.
UniProt P26048, residues 29-451: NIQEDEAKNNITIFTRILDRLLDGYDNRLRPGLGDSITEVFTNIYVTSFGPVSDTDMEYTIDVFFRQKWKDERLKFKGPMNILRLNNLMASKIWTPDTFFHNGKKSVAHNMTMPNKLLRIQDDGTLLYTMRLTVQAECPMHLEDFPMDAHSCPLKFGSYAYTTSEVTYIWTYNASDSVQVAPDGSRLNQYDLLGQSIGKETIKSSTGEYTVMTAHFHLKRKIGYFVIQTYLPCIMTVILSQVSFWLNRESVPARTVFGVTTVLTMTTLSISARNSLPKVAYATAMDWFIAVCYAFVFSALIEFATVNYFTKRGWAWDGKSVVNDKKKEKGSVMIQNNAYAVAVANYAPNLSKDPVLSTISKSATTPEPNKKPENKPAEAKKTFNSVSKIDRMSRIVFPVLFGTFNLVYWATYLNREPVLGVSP

According to publication PMC9816108:

B1: Cnp (protein, UniProt P16330 1-420)
chain: MNTSFTRKSHTFLPKLFFRKMSSSGAKEKPELQFPFLQDEDTVATLHECKTLFILRGLPGSGKSTLARLILEKYHDGTKMVSADAYKIIPGSRADFSEAYKRLDEDLAGYCRRDIRVLVLDDTNHERERLDQLFEMADQYQYQVVLVEPKTAWRLDCAQLKEKNQWQLSADDLKKLKPGLEKDFLPLYFGWFLTKKSSETLRKAGQVFLEELGNHKAFKKELRHFISGDEPKEKLELVSYFGKRPPGVLHCTTKFCDYGKAAGAEEYAQQEVVKRSYGKAFKLSISALFVTPKTAGAQVVLTDQELQLWPSDLDKPSASEGLPPGSRAHVTLGCAADVQPVQTGLDLLDILQQVKGGSQGEAVGELPRGKLYSLGKGRWMLSLTKKMEVKAIFTGYYGKGKPVPIHGSRKGGAMQICTII
B2: Cntn1 (protein, UniProt P12960 21-1001)
chain: DFTWHRRYGHGVSEEDKGFGPIFEEQPINTIYPEESLEGKVSLNCRARASPFPVYKWRMNNGDVDLTNDRYSMVGGNLVINNPDKQKDAGVYYCLASNNYGMVRSTEATLSFGYLDPFPPEERPEVKVKEGKGMVLLCDPPYHFPDDLSYRWLLNEFPVFITMDKRRFVSQTNGNLYIANVESSDRGNYSCFVSSPSITKSVFSKFIPLIPIPERTTKPYPADIVVQFKDIYTMMGQNVTLECFALGNPVPDIRWRKVLEPMPSTAEISTSGAVLKIFNIQLEDEGLYECEAENIRGKDKHQARIYVQAFPEWVEHINDTEVDIGSDLYWPCIATGKPIPTIRWLKNGYSYHKGELRLYDVTFENAGMYQCIAENAYGSIYANAELKILALAPTFEMNPMKKKILAAKGGRVIIECKPKAAPKPKFSWSKGTEWLVNSSRILIWEDGSLEINNITRNDGGIYTCFAENNRGKANSTGTLVITNPTRIILAPINADITVGENATMQCAASFDPALDLTFVWSFNGYVIDFNKEITHIHYQRNFMLDANGELLIRNAQLKHAGRYTCTAQTIVDNSSASADLVVRGPPGPPGGLRIEDIRATSVALTWSRGSDNHSPISKYTIQTKTILSDDWKDAKTDPPIIEGNMESAKAVDLIPWMEYEFRVVATNTLGTGEPSIPSNRIKTDGAAPNVAPSDVGGGGGTNRELTITWAPLSREYHYGNNFGYIVAFKPFDGEEWKKVTVTNPDTGRYVHKDETMTPSTAFQVKVKAFNNKGDGPYSLVAVINSAQDAPSEAPTEVGVKVLSSSEISVHWKHVLEKIVESYQIRYWAGHDKEAAAHRVQVTSQEYSARLENLLPDTQYFIEVGACNSAGCGPSSDVIETFTRKAPPSQPPRIISSVRSGSRYIITWDHVVALSNESTVTGYKILYRPDGQHDGKLFSTHKHSIEVPIPRDGEYVVEVRAHSDGGDGVVSQVKISGVSTLS
B3: Golga2 (protein, UniProt Q921M4 1-999)
chain: MWPPRFPPPRPGMSEETRQSKLAAAKKKLREYQQKNSPGVPAGAKKKKKIKNGHSPERPTASDCQSPENVPTDHIAPAPPTAATDTMFLGVTPSPDADLTQSHDAGNCSNLMEETKTFSSTESLRQLSQQLNGLVSESTSYINGEGLTSSNMKELENRYQELAVALDSSYVTNKQLSSTIEELKQQNQDTLDQLEKEKKDYQQKLAKEQGSLREQLQVHIQTIGILVSEKAELQTALAHTQQAARQKAGESEDLASRLQSSRQRVGELERTLSTVSTQQKQADRYNKDLTKERDALKLELYKNSKSNEDLRQQNSELEEKLRVLVAEKAAAQLGVEELQKKLEMSELLLQQFSSQSSAAGGNEQLQHAMEERAQLETHVSQLMESLKQLQVERDQYAENLKGESAMWQQRVQQMAEQVHTLKEEKEHRERQVQELETSLAALRSQMEEPPPPEPPAGPSEAEEQLQGEVEQLHKELERLTGQLRAQVQDNESLSHLNREQEGRLLELEREAQRWSEQAEERKQILESMQSDRTTISRALSQNRELKEQLAELQNGFVRLTNENMEITSALQSEQHVKKELARKLGELQERLGELKETVELKSQEAQGLQEQRDQCLSHLQQYAAAYQQHLAAYEQLTSEKEAIHKQLLLQTQLMDQLQHEEVQGKMAAELARQELQEAQERLKATSQENQQLQAQLSLLVLPGEGDVDQEEEDEEVPQSSLAIPEDLDSREAMVAFFNAAIARAEEEQARLRVQLKEQKARCRSLSHLAAPVQSKLEKEAVVPRNVDDSASEESNQALHVAMEKLQSRFLEVMQEKVELKERVEELEHCCIQLSGETDTIGEYIALYQNQRAVLKARHLEKEEYISRLAQDKEEMKVKLLELQELVLRLVNERNEWQGKFLAVSQNPGDVLTPVPTGSQEFGAADQQDDLREVSLADDIEPAQGEAGVPAPHENPTAQQIMQLLREIQNPRERPGLGSNPCIPFFYRADENDEVKIMVV
B4: Cntnap1 (protein, UniProt O54991 21-1385)
chain: WGYYGCNEELVGPLYARSLGASSYYGLFTTARFARLHGISGWSPRIGDPNPWLQIDLMKKHRIRAVATQGAFNSWDWVTRYMLLYGDRVDSWTPFYQKGHNATFFGNVNDSAVVRHDLHYHFTARYIRIVPLAWNPRGKIGLRLGIYGCPYTSSILYFDGDDAISYRFQRGASQSLWDVFAFSFKTEEKDGLLLHTEGSQGDYVTLELQGAHLLLHMSLGSSPIQPRPGHTTVSLGGVLNDLSWHYVRVDRYGRDANFTLDGYAHHFVLNGDFERLNLENEIFIGGLVGAARKNLAYRHNFRGCIENVIYNRINIAEMAVMRHSRITFEGNVAFRCLDPVPHPINFGGPHNFVQVPGFPRRGRLAVSFRFRTWDLTGLLLFSHLGDGLGHVELMLSEGQVNVSIAQTGRKKLQFAAGYRLNDGFWHEVNFVAQENHAVISIDDVEGAEVRVSYPLLIRTGTSYFFGGCPKPASRWGCHSNQTAFHGCMELLKVDGQLVNLTLVEFRKLGYFAEVLFDTCGITDRCSPNMCEHDGRCYQSWDDFICYCELTGYKGVTCHEPLYKESCEAYRLSGKYSGNYTIDPDGSGPLKPFVVYCDIRENRAWTVVRHDRLWTTRVTGSSMDRPFLGAIQYWNASWEEVSALANASQHCEQWIEFSCYNSRLLNTAGGYPYSFWIGRNEEQHFYWGGSQPGIQRCACGLDQSCVDPALHCNCDADQPQWRTDKGLLTFVDHLPVTQVVVGDTNRSNSEAQFFLRPLRCYGDRNSWNTISFHTGAALRFPPIRANHSLDVSFYFRTSAPSGVFLENMGGPFCRWRRPYVRVELNTSRDVVFAFDIGNGDENLTVHSDDFEFNDDEWHLVRAEINVKQARLRVDHRPWVLRPMPLQTYIWLVYDQPLYVGSAELKRRPFVGCLRAMRLNGVTLNLEGRANASEGTFPNCTGHCTHPRFPCFHGGRCVERYSYYTCDCDLTAFDGPYCNHDIGGFFETGTWMRYNLQSALRSAAREFSHMLSRPVPGYEPGYVPGYDTPGYVPGYHGPGYRLPEYPRPGRPVPGYRGPVYNVTGEEVSFSFSTNSAPAVLLYVSSFVRDYMAVLIKEDGTLQLRYQLGTSPYVYQLTTRPVTDGQPHSVNITRVYRNLFIQVDYFPLTEQKFSLLVDSQLDSPKALYLGRVMETGVIDPEIQRYNTPGFSGCLSGVRFNNVAPLKTHFRTPRPMTAELAEAMRVQGELSESNCGAMPRLVSEVPPELDPWYLPPDFPYYHDDGWIAILLGFLVAFLLLGLVGMLVLFYLQNHRYKGSYHTNEPKATHDSHPGGKAPLPPSGPAQAPAPTPAPTQLPTPAPAPAPAPASGPGPRDQNLPQILEESRSE
B5: gephyrin (protein, UniProt Q8BUV3 1-769)
chain: MATEGMILTNHDHQIRVGVLTVSDSCFRNLAEDRSGINLKDLVQDPSLLGGTISAYKIVPDEIEEIKETLIDWCDEKELNLILTTGGTGFAPRDVTPEATKEVIEREAPGMALAMLMGSLNVTPLGMLSRPVCGIRGKTLIINLPGSKKGSQECFQFILPALPHAIDLLRDAIVKVKEVHDELEDLPSPPPPLSPPPTTSPHKQTEDKGVQCEEEEEEKKDSGVASTEDSSSSHITAAALAAKIPDSIISRGVQVLPRDTASLSTTPSESPRAQATSRLSTASCPTPKQIRRPDESKGVASRVGSLKARLPSCSSTYSVSEVQSRCSSKENILRASHSAVDITKVARRHRMSPFPLTSMDKAFITVLEMTPVLGTEIINYRDGMGRVLAQDVYAKDNLPPFPASVKDGYAVRAADGPGDRFIIGESQAGEQPTQTVMPGQVMRVTTGAPIPCGADAVVQVEDTELIRESDDGTEELEVRILVQARPGQDIRPIGHDIKRGECVLAKGTHMGPSEIGLLATVGVTEVEVNKFPVVAVMSTGNELLNPEDDLLPGKIRDSNRSTLLATIQEHGYPTINLGIVGDNPDDLLNALNEGISRADVIITSGGVSMGEKDYLKQVLDIDLHAQIHFGRVFMKPGLPTTFATLDIDGVRKIIFALPGNPVSAVVTCNLFVVPALRKMQGILDPRPTIIKARLSCDVKLDPRPEYHRCILTWHHQEPLPWAQSTGNQMSSRLMSMRSANGLLMLPPKTEQYVELHKGEVVDVMVIGRL

The binders below were run against GABAA receptor α2 subunit modified with pHluorin and 9E10 (myc) epitope on its N-terminus (mouse (knock-in, forebrain)) (UniProt P26048) (assay: affinity purification with mass spectrometry; α1 and α2 (pHα2) receptors immunopurified from mouse forebrain plasma membrane fractions, BN-PAGE, 720 kDa species excised, label-free LC-MS/MS; only proteins significantly enriched over control (non-immune IgG, or anti-9E10 in wild type tissue)).

binding, binds:
B1
B2
B3
B4
B5

No constants are given. Whether binding was seen depends on the method and setting. Binding seen in cells or lysates may run through a third protein. These calls come from enrichment with a bait or labelling near it, and not all partners need be listed.
